Measured values as given in PMC10915761.
No constants are given. Whether binding was seen depends on the method and setting. Binding seen in cells or lysates may run through a third protein. Some binding calls cover weakened binding; strength is not graded here.

Chains of the proteins cited; added tags and fusions are not shown.
UniProt Q69ZR9: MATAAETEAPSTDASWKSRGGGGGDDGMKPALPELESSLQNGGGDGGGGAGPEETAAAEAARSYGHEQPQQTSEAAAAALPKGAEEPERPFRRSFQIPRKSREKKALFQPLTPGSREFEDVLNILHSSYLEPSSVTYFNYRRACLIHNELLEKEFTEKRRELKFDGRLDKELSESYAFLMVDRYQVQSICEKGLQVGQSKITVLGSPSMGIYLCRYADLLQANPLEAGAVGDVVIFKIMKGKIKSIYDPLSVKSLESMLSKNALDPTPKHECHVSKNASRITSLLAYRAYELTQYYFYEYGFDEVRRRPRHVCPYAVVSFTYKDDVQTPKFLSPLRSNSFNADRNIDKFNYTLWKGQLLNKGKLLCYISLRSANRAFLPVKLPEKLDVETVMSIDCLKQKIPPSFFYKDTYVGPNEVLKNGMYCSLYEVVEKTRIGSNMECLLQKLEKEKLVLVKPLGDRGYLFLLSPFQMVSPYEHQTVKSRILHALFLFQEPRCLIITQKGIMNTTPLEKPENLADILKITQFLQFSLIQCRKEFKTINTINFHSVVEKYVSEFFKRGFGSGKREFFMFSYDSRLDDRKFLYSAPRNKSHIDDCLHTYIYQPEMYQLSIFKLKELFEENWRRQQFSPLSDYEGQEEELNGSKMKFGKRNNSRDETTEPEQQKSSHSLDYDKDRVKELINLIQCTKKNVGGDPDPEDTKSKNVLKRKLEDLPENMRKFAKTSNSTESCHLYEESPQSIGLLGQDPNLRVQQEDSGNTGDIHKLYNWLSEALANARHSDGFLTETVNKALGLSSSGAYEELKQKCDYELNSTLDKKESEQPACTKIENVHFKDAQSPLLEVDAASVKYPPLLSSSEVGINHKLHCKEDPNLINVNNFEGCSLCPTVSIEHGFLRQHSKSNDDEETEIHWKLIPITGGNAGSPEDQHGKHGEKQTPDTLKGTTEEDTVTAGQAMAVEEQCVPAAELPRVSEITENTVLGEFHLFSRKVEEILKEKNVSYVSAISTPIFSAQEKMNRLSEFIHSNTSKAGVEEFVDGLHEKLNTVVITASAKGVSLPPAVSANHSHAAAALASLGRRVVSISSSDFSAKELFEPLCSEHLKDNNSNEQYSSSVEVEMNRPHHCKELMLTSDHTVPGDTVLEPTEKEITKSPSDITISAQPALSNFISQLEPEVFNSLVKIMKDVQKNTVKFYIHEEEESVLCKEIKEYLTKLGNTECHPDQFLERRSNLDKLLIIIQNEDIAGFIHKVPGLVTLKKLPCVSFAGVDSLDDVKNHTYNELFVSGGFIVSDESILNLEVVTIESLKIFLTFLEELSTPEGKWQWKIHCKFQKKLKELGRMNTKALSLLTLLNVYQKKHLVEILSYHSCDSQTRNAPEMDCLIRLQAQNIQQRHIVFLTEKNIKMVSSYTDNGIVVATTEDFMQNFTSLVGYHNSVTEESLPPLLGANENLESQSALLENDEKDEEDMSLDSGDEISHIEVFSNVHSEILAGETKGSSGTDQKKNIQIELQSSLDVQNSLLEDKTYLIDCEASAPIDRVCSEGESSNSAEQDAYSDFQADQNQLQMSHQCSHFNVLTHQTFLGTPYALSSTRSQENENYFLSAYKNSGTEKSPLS
UniProt Q8BFQ4: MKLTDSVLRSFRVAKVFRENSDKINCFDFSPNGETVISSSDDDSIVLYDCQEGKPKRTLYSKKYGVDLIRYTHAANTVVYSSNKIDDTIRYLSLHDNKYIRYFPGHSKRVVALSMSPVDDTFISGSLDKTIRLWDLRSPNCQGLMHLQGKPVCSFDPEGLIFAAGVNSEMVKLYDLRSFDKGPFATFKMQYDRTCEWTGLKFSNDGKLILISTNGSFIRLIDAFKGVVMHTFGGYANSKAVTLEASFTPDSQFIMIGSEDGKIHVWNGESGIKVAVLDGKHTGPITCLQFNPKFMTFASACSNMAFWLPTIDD

Molecular target: TASOR-AGH (TASOR endogenously tagged at the C terminus with AID-GFP-HAx3) (mouse (endogenous in R1 mESCs)) (UniProt Q69ZR9)
Assay: co-IP; HA IP of TASOR-AGH from mESC lysate (GG lysis buffer: 10 mM HEPES, 2 mM MgCl2, 10 mM KCl, 0.5% NP-40, 0.5 mM EDTA, 150 mM NaCl; 4 h at 4C), western blot; with RNaseA at 2 ng/uL during the IP; TASOR with MPP8 also in WDR82 KO cells

## WDR82 (from UniProt Q8BFQ4 1-313)
  binding: binds

B1: MPP8 (protein, UniProt Q3TYA6 1-858)
chain: MAAAAEEGMSAAALVMSVPDSIGRSPESEGVGAGDEEKDAATKGTVAVGDSEEDGEDVFEVERILDMKCEGGKNLYKVRWKGYTSEDDTWEPEVHLEDCKEVLLEFRKKLAENKAKAVRKDIQRLSLNNDIFEADSDSDQQSDTKEDISPRKKKKKIKCKEETSPEDLRKKRTKMGKLKDKFKTELESTSEIIGFDVKTKKRIWEVKEELKDSKKPKKDEIKETKELKKANKRAEVRDLKIKIREDVKENRKTKKERYIESPLESESPNDSLILEDDSEDFISDNREENQNVRSVRDKTAQETVQEGIFEKHLDDLISIEEDAGTRVRRKKTKPRKFEEPKEIKKLESTNAFLERRAIPKKQRNQDKGISNLELNKLPSPVFAQTLKSSRLSGEEKSLKSPDLAEEEKEKKNEPKGKYQKRYDLDKEEKARKEPKVLKSFKEIRNAFDLFKKTTEEKNDVLENNSKREEISLDSKIMNDNKTKDKCSLKEKRNTRDETDTWAYIAAEGDQEVSDSVCQTDETSDGRQPVLSLGMDLQLEWMKLEDFQKHLDGEDEPFITTNRIPNNLLRDAVKNGDYIAVKVALNSNEEYNLDQEDSTGMTLVMLAAAGGQDDLLRLLITKGAKVNGRQKNGTTALIHAAEKNFLTTVAILLEAGAFVNVQQSNGETALMKACKRGNSDIVRLVIECGADCNILSKHQNSALYFAKQCNNVLVYELLKSHLETLSRVAEETIRDYFESRLALLEPVFPIACHRLCEGPDFSTDFNYMPPQNMPEGSGVLLFIFHANFLGKDVIARLCGPCSVQAVVLNDKFQLPVFLDSHFVYSFSPVAGPNKLFIRLTEAPFAKVKLLIGAYRVQLQ
  binding: binds
